These are yes or no findings as the source states them, for the method shown. Binding seen in cells or lysates may run through a third protein. A result given as binding can be weak or reduced; the word gives no strength. Where a sequence is shown, tags or fusion partners need not be part of it.
Columns and labels:
[1] = molecular target: MPD2-GFP (membrane proximal domain of TRPV2 fused to sfGFP) (UniProt Q9WUD2); experiment: pull-down; purified MPD-GFP added to lysates of HEK293 cells transfected with MYC-tagged Snapin or Synaptotagmin-IX, 2 h at 4 °C; MPD-GFP immobilised on GFP-Trap A beads, 2 h at 4 °C; washed with lysis buffer; immunoblot; only the target purified
[2] = molecular target: MPD1-GFP (membrane proximal domain of TRPV1 fused to sfGFP) (UniProt O35433); experiment: as above

B1: Snapin c-myc-tagged (protein, UniProt O95295 1-136)
chain: MAGAGSAAVSGAGTPVAGPTGRDLFAEGLLEFLRPAVQQLDSHVHAVRESQVELREQIDNLATELCRINEDQKVALDLDPYVKKLLNARRRVVLVNNILQNAQERLRRLNHSVAKETARRRAMLDSGIYPPGSPGK
For B1, the binding [1] was “binds” and the binding [2] was “binds”.
